# Source: patent US20220220212A1 (RESEARCH FOUNDATION FOR THE STATE UNIVERSITY OF NEW YORK, published 2022)
# These are yes or no findings as the source states them, for the method shown. Some results given as binding are weak or reduced against the parent protein; the word gives no strength.
# Molecular target: ECL2 domain of the CCR2 chemokine receptor
# Experiment: phage display screening against ECL2
binder,measurement,value
clone 11b (scFv) scFv: DYKDDDDKLQPVLTQPSSASGTPGQRVTISCSGSSSNIGSNYVYWYQQLPGTAPKLLIYRNNQRPSGVPDRFSGSKSGTSASLAISGLQSEDEADYYCAAWDDTLIGPVFGGGTKLTVLGEGKSSGSGSESKASEVQLVESGGGLVKPGGSLTLSCAVSGFPFSDAWMNWVRQAPGKGLEWVGRIRSKAGGGTTDSAAPVKDRFTFSGDDSKNTVYVEMNSLKIEDTAVYYCTGEGYWGQGTLVTVSSVEAS,binding,binds
